From US10759779B2, “Crystalline form of orexin receptor antagonist, processes for preparation thereof and use thereof” (priority 2017, dated 2020) come the findings set out here.

The nature of the data set: Residual solvents. It is filed as physicochemical.

As for `Cc1ncc(OC[C@@]2(c3cccc(F)c3)C[C@H]2C(=O)Nc2ccc(F)cn2)c(C)n1` [Form CS2, (1R,2S)-2-{[(2,4-dimethylpyrimidin-5-yl)oxy]methyl}-2-(3-fluorophenyl)-N-(5-fluoropyridin-2-yl)cyclopropanecarboxamide], the Residual solvents result is given as “no residual solvents”.

As for `Cc1ncc(OC[C@@]2(c3cccc(F)c3)C[C@H]2C(=O)Nc2ccc(F)cn2)c(C)n1` [Amorphous solid, (1R,2S)-2-{[(2,4-dimethylpyrimidin-5-yl)oxy]methyl}-2-(3-fluorophenyl)-N-(5-fluoropyridin-2-yl)cyclopropanecarboxamide, reference compound], where the note is “ICH limit 5000 ppm”, the “-heptane residue” value is recorded as 46596.16 ppm and the ethyl acetate residue is on record as 1260.01 pm.
